The values below come from patent US4407746A (G. D. Searle & Co., priority 1981, dated 1983).

The series in a line: general procedure: solution-phase peptide synthesis; isobutyl chloroformate / N-methylmorpholine (mixed anhydride). The note with it: late stage modification step.

In turn, “Tyr-D-Met-Gly-Phe-DL-cis-3-aminocyclohexanecarboxylic Acid Methyl Ester HCl” registered a step yield of 91%.
